Reference: patent US20200199244A1
These are yes or no findings as the source states them, for the method shown. Some entries that bind do so weakly or less than the wild type.

Protein sequences, listed by entry. Tags and fused reporters are not part of them. Lines headed by an entry give the natural chain unless they say otherwise; changes in a name come on top.
UniProt P25942: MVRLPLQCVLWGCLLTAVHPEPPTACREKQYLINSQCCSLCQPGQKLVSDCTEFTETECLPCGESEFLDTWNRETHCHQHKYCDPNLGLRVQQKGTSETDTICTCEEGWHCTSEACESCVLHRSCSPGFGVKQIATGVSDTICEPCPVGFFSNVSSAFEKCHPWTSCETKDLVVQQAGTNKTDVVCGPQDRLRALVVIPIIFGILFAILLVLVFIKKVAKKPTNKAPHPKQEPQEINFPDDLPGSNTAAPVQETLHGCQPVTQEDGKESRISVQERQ

Assays:
[1] = molecular target: human CD40 on primary human cells (blood CD20+ B cells, tonsillar B cells, monocyte-derived dendritic cells) (human) (UniProt P25942); assay: flow cytometry on human whole blood, anti-PEG detection, gate on CD20+ B cells
[2] = molecular target: wild type cynomolgus monkey CD40 Fc fusion (Macaca fascicularis (cynomolgus monkey); human); assay: SPR (ProteOn XPR36), dAb over CD40-Fc captured by anti-human IgG(Fc)

Row | binding [1] | binding [2] | Binder
1 | binds | – | BMS3h38-2C-P40Br (protein, PEGylated; attachment residue not stated) VH: EVQLLASGGGLVQPGGSLRLSCAASGFTFEEEEMIWVRQAPGKGLEWVSAISGSGGSTYYADSVKGRFTISRDNSKNTLYLQMNSLRAEDTAVYYCGKEPFRYDYWGQGTLVTVSS
2 | – | binds | BMS3h-217-5 (protein) VL: DIQMTQSPSFLSASVGDRVTITCRASHFIATLLSWYQQKPGKAPKLLITYGSLLQSGVPSRFSGSGSGTDFTLTISSLQPEDFATYYCGQGVLWPPTFGQGTKVEIKR
3 | – | binds | BMS3h-217-16 (protein) VL: DIQMTQSPSSLSASVGDRVTITCRASHFIGTLLSWYQQKPRKAPKLLITYGSLLQSGVPSRFSGSGSGTDFTLTISSLQPEDFATYYCGQGVLWPPTFGQGTKVEIKR
4 | – | binds | BMS3h-217-23 (protein) VL: DIQMTQSPSSLSASVGDRVTITCRASHFIGSLLSWYQVKPGKAPKLLITYGSLLQSGVPSRFSGSGSGTDFTLTISSLQPEDFATYYCGQGVLWPATFGQGTTVEIKR
